Assay results as given in the supplement of paper PMC12823440, “Inhibitors supercharge kinase turnover through native proteolytic circuits” (Nature, 2025).
Structures can show the parent of a compound that is named as a salt. Some of the results follow. Hit calls seldom repeat between salt and free forms of one compound.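 Kinases, fused to nanoluciferase, were expressed in K562 cells; luminescence was measured every 4 h from 2 to 18 h as percent of control (DMSO = 100%, positive control = 0%). A time point is decreased if signal falls significantly (2 sigma). Hits were called by the authors by a rule that is not shown; the count of time points alone does not decide it.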

What follows are compounds tested against RAF1 (UniProt P04049) (assay: kinase-Nluc reporter destabilization hit call (1 = scored as downregulated) (binary); higher = compound decreases kinase abundance). Details: K562; 2-18 h.

kinase-Nluc reporter destabilization hit call, inactive:
CC#CC(=O)N1CC[C@@H](n2c(=O)n(-c3ccc(Oc4ccccc4)cc3)c3c(N)ncnc32)C1 [Tirabrutinib] (10 µM) 0
C[C@@]1(c2ncncc2F)NC(=O)c2cc(-c3cn[nH]c3)ccc21 (10 µM) 0
COc1ccc(Cl)c(Nc2nc3ccccc3nc2NS(=O)(=O)c2cccc(NC(=O)C(C)(C)N)c2)c1 [Pilaralisib] (10 µM) 0
O=Nc1c(-c2c(O)[nH]c3ccc(I)cc23)[nH]c2ccccc12 [5-Iodo-indirubin-3'-monoxime] (10 µM) 0
COc1cc2nccc(Oc3ccc(NC(=O)NC4CC4)c(Cl)c3)c2cc1C(N)=O [Lenvatinib] (10 µM) 0
C[C@]1(O)CCN(c2nc(N3C[C@H](O)[C@@H](O)C3)cc(C(F)(F)F)c2C#N)C1 (10 µM) 0
Cn1cnc(Cn2ccc3ccc(CNCc4[nH]c5ccccc5c4[C@H]4NC(=O)c5ccc(O)cc54)cc32)c1 (10 µM) 0

What follows are compounds tested against RAF1_S257L (clone: RAF1_mut) (UniProt P04049) in the same assay as above. Details: K562; 2-18 h.

kinase-Nluc reporter destabilization hit call, inactive:
O=C(CSC1=NCCN1)NC1CCCCCC1 [ICCB-19 (hydrochloride)] (2.5 µM) 0
CCCS(=O)(=O)Nc1ccc(F)c(C(=O)c2c[nH]c3ncc(-c4ccc(Cl)cc4)cc23)c1F [Vemurafenib] (10 µM) 0
Cc1ccc(OCCSc2ncccn2)c(Br)c1 [ZLN024 (hydrochloride)] (10 µM) 0
Nc1ncnc2c1c(-c1ccc(Oc3ccccc3)cc1)nn2C1CCCC1 (2.5 µM) 0
COc1ncc(Cl)cc1S(=O)(=O)Nc1ccc(F)c(C#Cc2cnc(N)nc2)c1F (2.5 µM) 0
Cc1ccc(CNc2ncnc3ccc(-c4ccc(CO)o4)cc23)o1 (10 µM) 0
NC(=O)c1nnc(N[C@@H]2CCCC[C@@H]2N)nc1Nc1cccc2cc[nH]c12 (10 µM) 0
CNc1nc(Nc2ccc(C(=O)N3CCOCC3)cc2OC)nc2[nH]cc(Cl)c12 (2.5 µM) 0
CCNc1nc(Nc2cc(F)c(C(=O)N3CCOCC3)cc2OC)ncc1C(F)(F)F [GNE-7915 (tosylate)] (10 µM) 0
CCN1CCN(Cc2ccc(Nc3ncc(F)c(-c4cc(F)c5nc(C)n(C(C)C)c5c4)n3)nc2)CC1 [Abemaciclib] (2 µM) 0
COCCNc1nc2ccc(C#CC3(O)CCCCC3)cc2n1-c1ccnc(N)n1 (10 µM) 0
OCCn1cc(-c2ccc3c(c2)CC/C3=N\O)c(-c2ccncc2)n1 (10 µM) 0
O=C1N[C@@H](Cc2c[nH]c3ccccc23)C(=O)N2CCC[C@@H]12 [Brevianamide F] (10 µM) 0
Cn1nccc1Nc1nccc(-c2ccn([C@H](CO)c3ccc(Cl)c(F)c3)c(=O)c2)n1 [Ravoxertinib] (10 µM) 0
O=C(NCCN1CCOCC1)c1cc2c(Oc3ccc(NC(=O)C4(C(=O)Nc5ccc(F)cc5)CC4)cc3)ccnc2[nH]1 [Tyrosine kinase inhibitor] (10 µM) 0
COc1cc2c(N3CCN(C(=O)Nc4ccc(OC(C)C)cc4)CC3)ncnc2cc1OCCCN1CCCCC1 [Tandutinib (hydrochloride)] (10 µM) 0
COc1cc(/C=C/C(=O)NCC(O)c2ccc(O)cc2)ccc1O (stereo not given) [N-Feruloyloctopamine] (2.5 µM) 0
COc1cc2nccc(Oc3ccc(NC(=O)NC4CC4)c(Cl)c3)c2cc1C(N)=O [Lenvatinib (mesylate)] (10 µM) 0
CN1CCN(c2cccc(Nc3nc4c(-c5ccc(S(C)(=O)=O)cc5)cccn4n3)c2)CC1 (10 µM) 0
C=C(CC[C@@H](C(=O)O)[C@H]1[C@H](O)C[C@@]2(C)C3=C(CC[C@]12C)[C@@]1(C)CC[C@H](OC(C)=O)C(C)(C)[C@@H]1CC3)C(C)C [Pachymic acid] (10 µM) 0
O=c1[nH]c(=O)n([C@@H]2O[C@H](CO)[C@@H](O)[C@@H]2O)cc1/C=C/Br [Sorivudine] (10 µM) 0
NC(=O)c1ccc(-c2nc(-c3ccc4c(c3)OCCO4)c(-c3ccccn3)[nH]2)cc1 (10 µM) 0
CC#CC(=O)Nc1ccc2ncnc(Nc3cccc(Br)c3)c2c1 (10 µM) 0
CCc1c(C(=O)NNC(=O)C(O)c2cc(F)cc(F)c2)ccc(O)c1C (stereo not given) (10 µM) 0
CC(=O)c1c(C)cc2cccc(O)c2c1O [Nepodin] (10 µM) 0
Cc1c(-c2c(F)cc(C(N)=O)c3[nH]c4c(c23)CC[C@H](C(C)(C)O)C4)cccc1-n1c(=O)c2cccc(F)c2n(C)c1=O (2.5 µM) 0
CCc1cc2c(cc1N1CCC(N3CCOCC3)CC1)C(C)(C)c1[nH]c3cc(C#N)ccc3c1C2=O [Alectinib] (10 µM) 0
FC(F)c1nc2ccccc2n1-c1nc(N2CCOCC2)nc(N2CCOCC2)n1 (2 µM) 0
FC(F)(c1ccc2ncccc2c1)c1nnc2ccc(-c3ccncc3)nn12 (10 µM) 0
Cn1cc(-c2cnn3c(N)c(Br)c([C@@H]4CCCNC4)nc23)cn1 (2.5 µM) 0
C[C@@H]1COCCN1c1cc(C2([S@@](C)(=N)=O)CC2)nc(-c2ccnc3[nH]ccc23)n1 [(S)-Ceralasertib] (10 µM) 0
CC#CC(=O)N1CC[C@@H](n2c(=O)n(-c3ccc(Oc4ccccc4)cc3)c3c(N)ncnc32)C1 [Tirabrutinib] (10 µM) 0
C[C@@]1(c2ncncc2F)NC(=O)c2cc(-c3cn[nH]c3)ccc21 (10 µM) 0
COc1ccc(Cl)c(Nc2nc3ccccc3nc2NS(=O)(=O)c2cccc(NC(=O)C(C)(C)N)c2)c1 [Pilaralisib] (10 µM) 0
O=Nc1c(-c2c(O)[nH]c3ccc(I)cc23)[nH]c2ccccc12 [5-Iodo-indirubin-3'-monoxime] (10 µM) 0
COc1cc2nccc(Oc3ccc(NC(=O)NC4CC4)c(Cl)c3)c2cc1C(N)=O [Lenvatinib] (10 µM) 0
C[C@]1(O)CCN(c2nc(N3C[C@H](O)[C@@H](O)C3)cc(C(F)(F)F)c2C#N)C1 (10 µM) 0
Cn1cnc(Cn2ccc3ccc(CNCc4[nH]c5ccccc5c4[C@H]4NC(=O)c5ccc(O)cc54)cc32)c1 (10 µM) 0
